Inconclusive results, whose numbers are uncertain, are shown with a selection of clear calls. For part of these data: Where the call is inconclusive, the potency comes from a doubtful curve fit. Calls of active or inactive are those of the source. Unless noted, calls follow the shape of the dose curve; as a rule, active = well fitted curve in the direction sought with a large enough effect; inconclusive = small, poorly fitted or top-dose-only effect, or another doubt; inactive = no such curve, though single readings can be large; an effect the other way counts as inactive or inconclusive.
Experiments:
[1] = Quantitative High-Throughput drug screen in 47 multiple myeloma cell lines against the NCATS MIPE library collection: MOLP8_DSMZ cell viability assay (AID 1918977); settings: MOLP8 myeloma viability, CellTiter-Glo ATP luminescence, 48 h; viability (% of control): at 45.8 µM (top of the series); also: nearly all actives have a fitted effect of over 45% in size; also: potency is read from the fitted curve at half-maximal effect;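 as to viability (% of control): 100% = DMSO-only wells and 0% = media-only wells without cells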
Procedure, shortened: (§1)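 Plated at 500 cells per well, myeloma lines received MIPE 4.0 compounds by pin tool. Following 48 h culture at 37 °C, CellTiter-Glo luminescence gave viability relative to DMSO and media-only controls.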

Sequences of proteins named here, by UniProt entry; tags and fusion partners are left off. A change or cut given only in a name is not applied to a line headed by its entry.
UniProt Q12809: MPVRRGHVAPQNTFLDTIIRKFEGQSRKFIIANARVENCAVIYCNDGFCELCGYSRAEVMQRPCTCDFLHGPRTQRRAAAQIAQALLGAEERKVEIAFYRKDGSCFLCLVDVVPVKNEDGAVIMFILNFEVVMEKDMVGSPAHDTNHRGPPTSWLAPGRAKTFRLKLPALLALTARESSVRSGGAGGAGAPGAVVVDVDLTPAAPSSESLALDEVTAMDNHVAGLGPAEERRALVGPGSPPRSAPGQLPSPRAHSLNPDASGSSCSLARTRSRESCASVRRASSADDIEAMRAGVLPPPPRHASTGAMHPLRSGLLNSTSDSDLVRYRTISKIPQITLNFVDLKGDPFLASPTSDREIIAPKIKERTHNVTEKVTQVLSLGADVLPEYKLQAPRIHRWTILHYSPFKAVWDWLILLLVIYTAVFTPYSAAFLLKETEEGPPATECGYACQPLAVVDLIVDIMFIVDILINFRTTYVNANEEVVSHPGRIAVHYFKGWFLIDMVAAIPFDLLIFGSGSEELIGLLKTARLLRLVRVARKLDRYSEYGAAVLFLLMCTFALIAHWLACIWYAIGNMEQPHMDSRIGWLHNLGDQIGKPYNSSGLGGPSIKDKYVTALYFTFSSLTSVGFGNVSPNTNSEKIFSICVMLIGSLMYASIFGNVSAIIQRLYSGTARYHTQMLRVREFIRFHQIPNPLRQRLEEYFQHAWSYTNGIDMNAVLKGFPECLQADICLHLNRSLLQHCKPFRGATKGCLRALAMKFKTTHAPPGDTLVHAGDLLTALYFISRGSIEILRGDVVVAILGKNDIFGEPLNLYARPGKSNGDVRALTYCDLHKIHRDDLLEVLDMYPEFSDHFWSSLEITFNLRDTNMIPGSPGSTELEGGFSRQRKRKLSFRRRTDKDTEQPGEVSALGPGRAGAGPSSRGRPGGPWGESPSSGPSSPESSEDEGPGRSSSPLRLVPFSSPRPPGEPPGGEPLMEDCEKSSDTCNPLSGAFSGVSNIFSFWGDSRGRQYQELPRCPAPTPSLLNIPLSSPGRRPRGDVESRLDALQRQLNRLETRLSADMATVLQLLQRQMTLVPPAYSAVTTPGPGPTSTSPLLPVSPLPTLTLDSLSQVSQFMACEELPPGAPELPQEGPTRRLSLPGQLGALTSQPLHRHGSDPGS
UniProt O15648: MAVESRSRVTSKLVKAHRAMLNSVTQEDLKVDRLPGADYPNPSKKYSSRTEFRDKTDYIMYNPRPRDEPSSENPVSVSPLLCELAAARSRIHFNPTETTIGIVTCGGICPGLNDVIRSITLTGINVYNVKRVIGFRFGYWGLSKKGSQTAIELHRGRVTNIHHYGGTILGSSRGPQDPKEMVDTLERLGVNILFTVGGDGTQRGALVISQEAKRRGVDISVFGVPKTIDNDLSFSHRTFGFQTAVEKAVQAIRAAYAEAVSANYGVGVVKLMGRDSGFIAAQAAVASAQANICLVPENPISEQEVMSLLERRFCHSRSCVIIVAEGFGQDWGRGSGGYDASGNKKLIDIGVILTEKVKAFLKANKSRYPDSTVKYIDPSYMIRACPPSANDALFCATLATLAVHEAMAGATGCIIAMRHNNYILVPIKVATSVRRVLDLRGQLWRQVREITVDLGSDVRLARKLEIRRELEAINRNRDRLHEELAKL

[2] = Quantitative High-Throughput drug screen in 47 multiple myeloma cell lines against the NCATS MIPE library collection: MM1R_ATCC cell viability assay (AID 1918981); also: nearly all actives have a fitted effect of over 35% in size; also: potency is read from the fitted curve at half-maximal effect
Procedure, shortened: as §1

[3] = Quantitative High-Throughput drug screen in 47 multiple myeloma cell lines against the NCATS MIPE library collection: L363_DSMZ cell viability assay (AID 1918984); settings: L363 myeloma viability, CellTiter-Glo ATP luminescence, 48 h; viability (% of control): at 45.8 µM; also: nearly all actives have a fitted effect of over 40% in size; also: potency is read from the fitted curve at half-maximal effect
Procedure, shortened: as §1

[4] = Quantitative High-Throughput drug screen in 47 multiple myeloma cell lines against the NCATS MIPE library collection: KMS11_JCRBsus cell viability assay (AID 1919873); also: nearly all actives have a fitted effect of over 50% in size; also: potency is read from the fitted curve at half-maximal effect;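 as to viability (% of control): 100% = DMSO-only wells and 0% = media-only wells without cells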
Procedure, shortened: as §1

CP201 = assay: qHTS profiling for inhibitors of Plasmodium falciparum proliferation (AID 504749); also: nearly all actives have a fitted effect of over 60% in size; also: potency is read from the fitted curve at half-maximal effect;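 as to activity, negative = inhibition: 0% = DMSO vehicle and full inhibition = artemisinin control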; settings: P. falciparum in erythrocytes, SYBR Green DNA, 72 h; series mostly up to 28.7 µM
Procedure, shortened: (§2)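 Three-day growth assay of blood-stage parasites in erythrocytes (0.3% parasitemia, 2.5% hematocrit) at 37 C, 5% CO2, quantified by SYBR Green DNA staining after overnight detergent lysis.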

JCK = assay: as above; settings: P. falciparum in erythrocytes, SYBR Green DNA, 72 h; series mostly up to 28.7 µM
Procedure, shortened: as §2

[5] = qHTS of pediatric cancer cell lines to identify multiple opportunities for drug repurposing: Primary screen for control Hh wild type fibroblast cells (AID 1347106); also: nearly all actives have a fitted effect of over 55% in size; also: potency is read from the fitted curve at half-maximal effect
Procedure, shortened: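 Viability after 48 h compound treatment at 37C, 500-1,000 cells/well, read as ATP luminescence with CellTiter-Glo. Primary screens used 11-point (MIPE, 0.78 nM-46 µM) or 8-point (NPC, 0.59 nM-46 µM) final concentrations; follow-up screens used 11-point dilutions.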

[6] = Quantitative High-Throughput drug screen in 47 multiple myeloma cell lines against the NCATS MIPE library collection: ARP1_JJKsccF8 cell viability assay (AID 1918928; also: nearly all actives have a fitted effect of over 40% in size; also: potency is read from the fitted curve at half-maximal effect;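 as to viability: 100% = DMSO only wells and 0% = medium only wells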); settings: ARP1 myeloma cells viability, CellTiter-Glo ATP, 48 h; viability: at 45.8 µM
Procedure, shortened: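 Here, 48 h treatment with MIPE 4.0 agents at 37 °C preceded an ATP luminescence read. Plating density was 500 cells per well.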

[7] = Quantitative High-Throughput drug screen in 47 multiple myeloma cell lines against the NCATS MIPE library collection: KHM11_PLB cell viability assay (AID 1918962); settings: KHM11 myeloma cell viability, CellTiter-Glo ATP luminescence, 48 h; viability, % of DMSO control: at 45.8 µM; also: nearly all actives have a fitted effect of over 35% in size; also: potency is read from the fitted curve at half-maximal effect;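 as to viability, % of DMSO control: 0% = media only wells and 100% = DMSO treated cells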
Procedure, shortened: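 Primary qHTS used for cherry-picking: cells at 500/well, library compounds for 48 h (37C, 5% CO2), luminescent ATP assay.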

[8] = Quantitative High-Throughput drug screen in 47 multiple myeloma cell lines against the NCATS MIPE library collection: KMS34_JCRB cell viability assay (AID 1918985); also: potency is read from the fitted curve at half-maximal effect; nearly all actives have a fitted effect of over 40% in size
Procedure, shortened: as §1

[9] = Quantitative High-Throughput drug screen in 47 multiple myeloma cell lines against the NCATS MIPE library collection: U266_ATCC cell viability assay (AID 1919864); also: nearly all actives have a fitted effect of over 35% in size; also: potency is read from the fitted curve at half-maximal effect;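 as to viability (% of DMSO control): 0% = media-only wells without cells and 100% = DMSO-only wells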
Procedure, shortened: as §1

[10] = Quantitative High-Throughput drug screen in 47 multiple myeloma cell lines against the NCATS MIPE library collection: UTMC2_PLB cell viability assay (AID 1919868); settings: CellTiter-Glo ATP luminescence, 48 h; viability (% of DMSO control): at 45.8 µM; also: potency is read from the fitted curve at half-maximal effect; nearly all actives have a fitted effect of over 55% in size
Procedure, shortened: as §1

[11] = NS1 protein of Zika virus - qHTS assay to identify small molecule inhibitors in human HEK 293 cells (AID 1347053); also: nearly all actives have a fitted effect of over 55% in size; also: potency is read from the fitted curve at half-maximal effect;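 as to activity change, negative = inhibition: plate controls were infected untreated cells for no effect and uninfected cells for full effect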
Procedure, shortened: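 Following 20 h seeding, HEK 293 cells took compound, then 1 h later ZIKV MR766 (MOI = 0.5). Incubation ran 24 h at 37 C before TR-FRET detection of NS1; a drop in signal indicates inhibition.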

[12] = target: Voltage-gated inwardly rectifying potassium channel KCNH2 (Homo sapiens) (UniProt Q12809); assay: qHTS Assay for Small Molecule Inhibitors of the Human hERG Channel Activity (AID 588834); settings: U2OS BacMam hERG, FluxOR thallium flux fluorescence;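 also: potency is read from the fitted curve at half-maximal effect; lower thallium flux fluorescence means stronger hERG block; nearly all actives have a fitted effect of over 50% in size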
Procedure, shortened: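 Blockade is seen as reduced FluxOR thallium-flux fluorescence in U2OS cells expressing hERG from a BacMam construct, in Opti-MEM with 2% FCS. Concentration-response data fitted to the Hill equation for AC50.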

[13] = qHTS of pediatric cancer cell lines to identify multiple opportunities for drug repurposing: Primary screen for NB-EBc1 cells (AID 1347095); also: potency is read from the fitted curve at half-maximal effect
Procedure, shortened: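 Phenotypic viability qHTS, 48 h compound exposure, CellTiter-Glo luminescence read-out; multi-concentration dosing so that potency and efficacy derive directly from the primary screen's curves.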

3D7 = assay: qHTS profiling for inhibitors of Plasmodium falciparum proliferation (AID 504749); also: nearly all actives have a fitted effect of over 60% in size; also: potency is read from the fitted curve at half-maximal effect;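 as to activity, negative = inhibition: 0% = DMSO vehicle and full inhibition = artemisinin control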; settings: P. falciparum in erythrocytes, SYBR Green DNA, 72 h; series mostly up to 28.7 µM
Procedure, shortened: as §2

N140 = assay: as above; settings: P. falciparum in erythrocytes, SYBR Green DNA, 72 h; activity, negative = inhibition: at 28.7 µM (top of the series) unless noted
Procedure, shortened: as §2

[14] = qHTS Assay for Lipid Storage Modulators (AID 1519; calls by dose curve; also: % is scaled to controls: 0 for no effect and ±100 for the full control effect); settings: Drosophila S3 cells, BODIPY lipid droplet/cell ratio, laser cytometry, cells loaded with oleic acid; activity change, negative = inhibition: at 57.5 µM (top of the series)
Procedure, shortened: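 Cells seeded at 5,000 per well were treated with compounds over a concentration series and loaded with oleic acid (400 uM, as added). Lipid droplet fluorescence (488 nm excitation, 500-530 nm channel) was read by laser-scanning cytometry and normalized to 20 uM Triacsin C.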

[15] = target: ATP-dependent 6-phosphofructokinase (Trypanosoma brucei brucei) (UniProt O15648); assay: qHTS Validation Assay to Find Inhibitors of T. brucei phosphofructokinase (AID 485368); also: potency is read from the fitted curve at half-maximal effect
Procedure, shortened: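 Enzyme reaction in triethanolamine buffer pH 8.0 with 5 mM MgCl2, 0.01% Tween20 and 0.1% BSA; PFK 1.25 nM, F6P 0.5 mM, ATP 0.1 mM, 45 min RT. ADP quantified by ADP-Glo.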

CP192 = assay: qHTS profiling for inhibitors of Plasmodium falciparum proliferation (AID 504749); also: nearly all actives have a fitted effect of over 60% in size; also: potency is read from the fitted curve at half-maximal effect;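 as to activity, negative = inhibition: 0% = DMSO vehicle and full inhibition = artemisinin control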; settings: P. falciparum in erythrocytes, SYBR Green DNA, 72 h; series mostly up to 28.7 µM
Procedure, shortened: as §2

For `COc1cccc2c1C(=O)c1c(O)c3c(c(O)c1C2=O)C[C@@](O)(C(=O)CO)C[C@@H]3O[C@H]1C[C@H](N)[C@H](OC2CCCCO2)[C@H](C)O1` (stereo not given in full), the Potency [1] was active: 1.18 µM, the Potency [2] was active: 0.296 µM and the Potency [3] was “inactive”. For the same compound, the Potency [4] was active: 2.64 µM, the Potency (CP201) was active: 9.53 µM and the Potency (JCK) was active: 12.6 µM.
For `Nc1nc(NCCNc2ncc(-n3ccnc3)c(-c3ccc(Cl)cc3Cl)n2)ccc1[N+](=O)[O-]`, the Potency [5] was inconclusive: 1.66 µM [cytotoxic, full curve, poor fit], the Potency [6] was active: 11.8 µM and the Potency [7] was active: 5.26 µM. The Potency [8] was inconclusive: 2.64 µM [cytotoxic, full curve], the Potency [9] was “inactive” and the Potency [10] was inconclusive: 8.33 µM [cytotoxic, full curve, poor fit]. For the same compound, the Potency [4] was inconclusive: 10.5 µM [cytotoxic, single point].
In the case of `Nc1nc2ccccc2n1Cc1ccc(F)cc1`, the Potency [11] is reported as “inactive”.
With `CN(C(=O)CN(CCO)CC(=O)N(C)C(C)(C)Cc1ccccc1)C(C)(C)Cc1ccccc1` the Potency [12] was inconclusive: 5.01 µM [inhibitor, partial curve, poor fit], the Potency [11] was inconclusive: 10 µM [inhibitor, partial curve, poor fit] and the Potency [13] was inconclusive: 26.6 µM [cytotoxic, single point]. For the same compound, the Potency (3D7) was “inactive” and the Potency (N140) was inconclusive: 3.55 µM [inhibitor, single point].
For `NS(=O)(=O)c1cc2c(cc1Cl)NC(C1CC3C=CC1C3)NS2(=O)=O` (stereo not given), the activity change, negative = inhibition [14] was inconclusive: -3.6%, the Potency [15] was inconclusive: 0.379 µM [activator, partial curve, poor fit] and the Potency (CP192) was “inactive”.
For `N#C/C(=C1/SC[C@@H](c2ccc(Cl)cc2Cl)S1)n1ccnc1`, the Potency [13] was inconclusive: 29.9 µM [cytotoxic, single point].
In the case of `COc1cc2c(Nc3ccc(Cl)c(Cl)c3F)ncnc2cc1OCC1C[C@@H]2CN(C)C[C@H]2C1`, the Potency [5] is reported as active: 20.9 µM, the Potency [6] is reported as active: 8.33 µM and the Potency [7] is reported as active: 5.9 µM. The Potency [1] was inconclusive: 23.5 µM [cytotoxic, partial curve, poor fit], the Potency [2] was active: 16.6 µM and the Potency [3] was active: 1.66 µM. For the same compound, the Potency [8] was inconclusive: 16.6 µM [cytotoxic, partial curve], the Potency [9] was active: 23.5 µM and the Potency [10] was active: 2.35 µM.
With `O=C(O)CC(O)C(=O)O` (stereo not given) the Potency [11] was “inactive”.
In the case of `Cc1ccccc1C(OCCN(C)C)c1ccccc1` (stereo not given), the activity change, negative = inhibition [14] is reported as inconclusive: 7.5%, the Potency [15] is reported as “inactive” and the Potency [6] is reported as “inactive”. The Potency [7] was “inactive”, the Potency [1] was “inactive” and the Potency [2] was “inactive”. For the same compound, the Potency [3] was “inactive”, the Potency [8] was inconclusive: 0.0019 µM [rising, full curve, poor fit] and the Potency [9] was “inactive”. For the same compound, the Potency [10] was inconclusive: 2.09 µM [rising, partial curve, poor fit], the Potency [4] was “inactive” and the Potency (CP201) was inconclusive: 7.57 µM [inhibitor, partial curve]. The Potency (JCK) was inconclusive: 11.2 µM [inhibitor, single point].
In the case of `C[N+]1(C)CCC(=C(c2ccccc2)c2ccccc2)CC1`, the Potency [12] is reported as inconclusive: 5.01 µM [inhibitor, partial curve, poor fit], the Potency (3D7) is reported as inconclusive: 3.55 µM [inhibitor, single point] and the Potency (CP192) is reported as inconclusive: 9.07 µM [inhibitor, single point].
With `O=c1[nH]c(=O)n([C@H]2C[C@H](O)[C@@H](CO)O2)cc1Br` the Potency [15] was “inactive”.
In the case of `COc1ccc2[nH]c(S(=O)Cc3ncc(C)c(OC)c3C)nc2n1` (stereo not given), the Potency (3D7) is reported as active: 10 µM and the Potency (JCK) is reported as inconclusive: 8.91 µM [inhibitor, partial curve].
In the case of `CCN(CC)CCNC(C(=O)OCCC(C)C)c1ccccc1` (stereo not given), the Potency (CP192) is reported as inconclusive: 6.75 µM [inhibitor, partial curve, poor fit], the Potency (CP201) is reported as inconclusive: 12 µM [inhibitor, partial curve] and the Potency (N140) is reported as inconclusive: 12.6 µM [inhibitor, partial curve].
In the case of `CN1CCN(C2=Nc3cc(F)ccc3Cc3ccccc32)CC1`, the Potency [12] is reported as inconclusive: 31.6 µM [inhibitor, single point] and the Potency (N140) is reported as inconclusive: 11.2 µM [inhibitor, single point].
In the case of `NC(Cc1ccc(Cl)cc1)C(=O)O` (stereo not given), the activity change, negative = inhibition [14] is reported as inconclusive: 2.15%.
With `Cc1ccc(Cl)c(Nc2ccccc2C(=O)O)c1Cl` the Potency [13] was inconclusive: 16.8 µM [cytotoxic, partial curve] and the Potency [5] was “inactive”.
